Six substances from patent publication US20200308220A1 (priority 2015, published 2020) can be followed below.

For part of these data: HELM strings list residues between dots; [ac] is acetyl, [am] amide, other brackets name non-standard units. [ ]: non-standard residue; d: D form. The star is where a group is joined. Pmc = Cc1c(C)c(S(=O)(=O)*)c(C)c2c1OC(C)(C)CC2; Dmt = Cc1cc(O)cc(C)c1C[C@H](N)C(=O)O; Fmoc = O=C(OCC1c2ccccc2-c2ccccc21)*; Boc = CC(C)(C)OC(=O)*; βAla = NCCC(=O)O

The nature of data set [1]: general procedure: peptide synthesis; chlorotrityl chloride resin; H-β-Ala-2-chlorotrityl resin; p-methylbenzhydrylamine resin; HBTU/Cl-HOBt/DIPEA (1:1:2); DIC/Cl-HOBt; HBTU/DIPEA in solution. Particulars: for conjugation yield: conjugation step.
A short description of data set [2]: general procedure: peptide synthesis; p-methylbenzhydrylamine resin; HBTU/Cl-HOBt/DIPEA (1:1:2); DIC/Cl-HOBt; HBTU/DIPEA in solution. To be noted: whole synthesis.
Data set [3] is described as follows: general procedure: peptide synthesis; chlorotrityl chloride resin; HBTU/Cl-HOBt/DIPEA (1:1:2); DIC/Cl-HOBt; HBTU/DIPEA in solution. To be noted: whole synthesis.
The nature of data set [4]: general procedure: peptide synthesis; H-β-Ala-2-chlorotrityl resin; HBTU/Cl-HOBt/DIPEA (1:1:2); DIC/Cl-HOBt; HBTU/DIPEA in solution. Particulars: whole synthesis.

Regarding “PEPTIDE1{[Dmt].[dR].F.K.[bAla].[NH-TEMPO]}$$$$V2.0”, the conjugation yield in data set [1] is listed as 63% yield.
On to H-D-Arg-Dmt-Lys(TEMPO)-Phe-NH2, for which the crude yield entry in data set [2] is on record as “yield of 80%”.
For “H-D-Arg-Dmt-Lys-Phe-NH—(CH2)2—CO—NH-TEMPO”, the conjugation yield in data set [1] came out at 81.5% yield.
As for Fmoc-Dmt-D-Arg(Pbf)-Phe-Lys(Boc)-OH, in data set [3], the crude yield result was “yield 85%”.
Consider Fmoc-[dR](Pmc)[Dmt]K(Boc)F[βAla]-OH, for which, in data set [4], the “crude purity (method not given)” value is greater than 95%.
Consider “PEPTIDE1{[Dmt].[dR].F.[Lys(NH-TEMPO)].[am]}$$$$V2.0”, for which, in data set [1] (coupling step), the step yield result is given as “yield 100%”.
